From PubChem BioAssay AID540275 (National Center for Advancing Translational Sciences (NCATS), 2011)
“And” between values parts separate entries of the source, which are not always exact repeats. Equal values may be shown once. The campaign covered roughly 320,000 compounds. About 620 (0.19%) were called active. The shares of active, inactive and inconclusive entries below differ from those in the screen. Rule as the data show it: active = activation above about 80%; inconclusive = between about 30% and that limit; inactive = weaker than that.

By UniProt entry, the sequences of proteins in these tests, tags left out.
UniProt Q8NER1, whole entry, looked up: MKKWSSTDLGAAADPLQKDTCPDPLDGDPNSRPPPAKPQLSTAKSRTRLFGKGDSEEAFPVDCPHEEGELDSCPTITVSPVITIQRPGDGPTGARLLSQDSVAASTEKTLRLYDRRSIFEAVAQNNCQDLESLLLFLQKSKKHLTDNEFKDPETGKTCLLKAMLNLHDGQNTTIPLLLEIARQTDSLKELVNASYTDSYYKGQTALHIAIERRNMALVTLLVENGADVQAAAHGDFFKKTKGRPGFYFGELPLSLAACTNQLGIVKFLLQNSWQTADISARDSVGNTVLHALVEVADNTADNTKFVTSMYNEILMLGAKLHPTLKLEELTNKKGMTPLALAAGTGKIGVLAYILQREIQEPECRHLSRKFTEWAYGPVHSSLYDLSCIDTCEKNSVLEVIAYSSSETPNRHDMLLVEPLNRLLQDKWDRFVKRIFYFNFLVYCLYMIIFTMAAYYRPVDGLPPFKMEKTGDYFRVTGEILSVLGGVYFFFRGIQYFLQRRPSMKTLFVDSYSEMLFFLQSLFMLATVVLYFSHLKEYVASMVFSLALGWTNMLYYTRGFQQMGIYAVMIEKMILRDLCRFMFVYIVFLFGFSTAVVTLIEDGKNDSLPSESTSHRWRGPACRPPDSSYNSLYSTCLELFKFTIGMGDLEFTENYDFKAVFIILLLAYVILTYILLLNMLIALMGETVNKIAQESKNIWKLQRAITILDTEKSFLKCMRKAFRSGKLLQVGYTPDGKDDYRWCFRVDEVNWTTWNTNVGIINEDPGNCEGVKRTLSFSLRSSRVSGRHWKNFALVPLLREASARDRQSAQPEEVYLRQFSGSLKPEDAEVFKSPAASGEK

Each molecule was assayed against Transient receptor potential cation channel subfamily V member 1 (Homo sapiens) (UniProt Q8NER1) (assay: HTS Assay for Compounds that Act as Agonists of the Vanilloid Receptor 1). Conditions: TRPV1-expressing cells, Fluo-8 calcium influx, agonist mode; at 8.33 µM, hits give high values.
Procedure, shortened: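 TRPV1-expressing cells were cultured overnight at 35.5C and loaded with Fluo-8 calcium dye for 40 to 90 min at room temperature. After a 10 s baseline, compound was added and calcium influx was read kinetically for 3 min (ex 480/em 520 nm).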
Also: 0% is about no effect.

| SMILES | activation |
| --- | --- |
| O=C(Nc1ccc2oc(-c3ccccc3F)nc2c1)c1ccco1 | inconclusive: 36.1% |
| NC(=O)C1CCN(C(=O)c2ccc3nc(-c4ccccc4)c(-c4ccccc4)nc3c2)CC1 | active: 80.6% |
| Oc1sc(C=Nc2ccccc2)c2ccccc12 | inconclusive: 34.2% |
| CCN(CC)c1ccc(S(=O)(=O)N2CCCCC2)cc1NC(=O)C1=COCCO1 | inconclusive: 59.8% |
| O=C(NNC(=O)c1ccccc1OCc1ccccc1Cl)c1csc(N2CCOCC2)n1 | inconclusive: 66.7% |
| CCOc1ccc(S(=O)(=O)N2CCCCC2)cc1NC(=O)C1COc2ccccc2O1 (stereo unspecified) | inactive: -0.548% |
| O=C(NCc1ccncc1)c1ccc(Cl)c(S(=O)(=O)N2CCCCC2)c1 | inconclusive: 79.7% |
| Cc1c(C(=O)OCCOC(C)C)[nH]c2c1C(=O)CC(c1ccco1)C2 (stereo unspecified) | inconclusive: 34.5% |
| Cc1sc2ncnc(N3CCC(C(=O)N(C)CC(=O)Nc4ccccc4Cl)CC3)c2c1C | inconclusive: 34% |
| CNC(=O)CSc1nc2ccccc2c(=O)n1CCc1ccccc1 | inconclusive: 37.9% |
| O=C(Nc1nc2cc3c(cc2s1)OCCO3)C1CCCCC1 | inconclusive: 32.7% |
| CC(=O)c1cccc(NC(=O)c2cc3ccccn3n2)c1 | inconclusive: 33.6% |
| CCOc1ccc(/C=C/C(=O)Nc2ccc(N3CCOCC3)cc2)cc1 | inconclusive: 52% |
| O=C(CSc1cn[nH]n1)Nc1cccc(C(F)(F)F)c1 | inconclusive: 32.9% |
| O=C(Oc1ccc2cc(Br)ccc2c1)N1CCCCCC1 | inactive: 3.59% |
| Cc1ccc(S(=O)(=O)N(CC(=O)N2CCOCC2)c2ccc(C(C)C)cc2)cc1 | inconclusive: 70% |
| CC1CCN(C(=O)C2CCN(C(=O)c3ccc(C(C)(C)C)cc3)CC2)CC1 | inconclusive: 38.4% |
| Cc1ccc(N(CC2=NCCN2)c2cccc(O)c2)cc1 | inactive: -3.75% and inactive: -3.61% and inactive: -2.57% |
| O=C(O)Cn1ncc2ccccc2c1=O | inactive: -0.219% |
| O=C(CO/N=C/c1ccc(OC(F)F)cc1)NCc1ccc(F)cc1 | inconclusive: 49.1% |
| CCCN(CC(=O)Nc1ccccc1C)C(=O)c1ccc2[nH]c3c(c2c1)CC(C)CC3 (stereo unspecified) | inactive: 3.39% |
| CCOC(=O)C(NCc1ccccn1)(NC(=O)c1cccnc1)C(F)(F)F (stereo unspecified) | inactive: 0.542% |
| COc1cc2oc3ccccc3c(=O)c2cc1OC | inactive: 8.55% |

Copied from the listing for reference:

| SMILES | activation |
| --- | --- |
| Oc1sc(C=Nc2ccccc2)c2ccccc12 | inconclusive: 34.2% |
| CCN(CC)c1ccc(S(=O)(=O)N2CCCCC2)cc1NC(=O)C1=COCCO1 | inconclusive: 59.8% |
| O=C(NNC(=O)c1ccccc1OCc1ccccc1Cl)c1csc(N2CCOCC2)n1 | inconclusive: 66.7% |
| CCOc1ccc(S(=O)(=O)N2CCCCC2)cc1NC(=O)C1COc2ccccc2O1 (stereo unspecified) | inactive: -0.548% |

Next records:

| SMILES | activation |
| --- | --- |
| CN(Cc1ccc2ccccc2c1)C(=O)c1ccc(C(F)(F)F)cc1 | inconclusive: 37.3% |
| Cc1ccc(C)c(N2CCN(S(=O)(=O)c3ccc(-c4cc(C)no4)s3)CC2)c1 | inconclusive: 59.4% |
| Cc1nc(-c2ccc(C(=O)Nc3ccc(F)cc3)cc2)cs1 | inconclusive: 48.3% |
| CCOC(=O)[C@H]1[C@H]2COc3ccc(C)cc3[C@@H]2N2C(=O)c3ccc(F)cc3NC(=O)[C@@]12C | active: 85% |
| CCOc1ccc(OCc2ccc(C(=O)N3CCCCC3)o2)cc1 | inconclusive: 30.5% |
| C=CCOc1cccc(/C=C2\C(=O)N(Cc3ccc(C)cc3)C(C)=C2C(=O)OC)c1 | inactive: 3.84% |
| CC(C)[C@H](NC(=O)[C@@H]1Cc2ccccc2CN1C(=O)OC(C)(C)C)C(=O)NC1CCCC1 | inactive: 1.88% |
| O=C(Nc1ccc2snnc2c1)Nc1cccc2ccccc12 | inconclusive: 49.2% |
| O=C(CSc1nnc(-c2ccccc2)n1-c1ccc(Cl)cc1)NC1CCS(=O)(=O)C1 (stereo unspecified) | inconclusive: 32.7% |
| C=C(C)CSc1nc2sc3c(c2c(=O)n1C1CCCCC1)CCN(C)C3 | inconclusive: 30.2% |
| O=C(Nc1ccc(C(=O)OC2CCCCC2)cc1)c1ccncc1 | inconclusive: 74.1% |
| COc1cccc(C2=NN(C(=O)c3cccs3)C(O)(C(F)(F)F)C2)c1 (stereo unspecified) | inconclusive: 31.2% |
| CN(c1ccccc1)S(=O)(=O)c1cccc(NC(=O)Cc2ccc(Cl)cc2)c1 | inactive: 6.78% |
| Cc1cccc(NC(=O)[C@H](Cc2ccccc2)NC(=O)OCc2ccccc2)c1 | inconclusive: 58.5% |
| CCCOc1c(Cl)cc(C(=O)Nc2ccc3c(c2)OCO3)cc1OCC | inconclusive: 59.6% |
| CCOc1ccc(CNC(=O)Nc2ccccc2)cc1 | inconclusive: 60.6% |
| COc1cccc(CNC(=O)N2CCN(c3ccccc3C)CC2)c1 | inconclusive: 39.3% |
| Oc1ccc2ccccc2c1/C=N/Nc1ccccc1 | inactive: 0.38% |
| Cc1ccc(NC(=O)c2cc(-c3ccc(F)cc3)on2)cc1C | inactive: 3.54% |
| CC(C)Cc1nnc(NC(=O)CCC(=O)NCc2ccccc2Cl)s1 | inactive: 2.42% |
| COc1ccc(N2CCN(C(=S)NCc3ccccc3)CC2)cc1 | inconclusive: 32.5% |
| COC(=O)c1ccccc1NC(=O)CN1CCC(NC(=O)c2ccc(C)cc2)CC1 | inconclusive: 48% |
| O=C(Nc1ccc2ncccc2c1)c1cccc(Br)c1 | inconclusive: 73.2% |

| SMILES | activation |
| --- | --- |
| Cc1nc(N2CCOCC2)c2cc(-c3ccccc3)sc2n1 | inconclusive: 59.9% |
| CCNC(=S)NNC(=O)c1cc(C2CC2)nc2ccccc12 | inactive: 6.06% |
| COc1cc2c(cc1OC)C(C(=O)Nc1ccc(F)c(Cl)c1)CC(=O)N2 (stereo unspecified) | inactive: -4.55% |
| O=C(COc1ccc(Cl)cc1Cl)N/N=C/c1ccc(OC2OC(CO)C(O)C(O)C2O)cc1 (stereo unspecified) | inactive: 0.133% |
| O=C(/C=C/C=C/c1ccccc1)c1ccco1 | inconclusive: 55.9% |
| CCCc1nc(SC)[nH]c(=O)c1C | inactive: -1.2% |
| CCC(C)c1ccc(NC(=S)N2CCCC2)cc1 (stereo unspecified) | inconclusive: 54.4% |
| COc1ccc(/C=N/N=C2/NC(=O)C(CC(=O)NC(C)C)S2)cc1 (stereo unspecified) | inactive: 6.28% |
| CCn1nc(NC(=O)COC)c2cc3cccc(C)c3nc21 | inconclusive: 44.1% |
| Cc1cc(C)n(-c2ccc(C(=O)OCc3ccccc3)cc2)n1 | inconclusive: 32.3% |
| COc1ccc(S(=O)(=O)N2CCCCC2)cc1NCC(=O)Nc1ccc(C)cc1 | inconclusive: 36.3% |
| CCc1ccc(N(CC(=O)NCc2cccnc2)S(=O)(=O)c2ccccc2)cc1 | inconclusive: 60% |
| Cc1ccc(C2=CC(=O)C[C@H](c3ccc(Cl)cc3)C2)cc1 | inconclusive: 61.2% |
| O=C(NCCc1csc(-c2ccccc2)n1)c1ccco1 | inactive: 30% |
| CC(C)c1ccc2[nH]c3nc(SCC(=O)N4CCOCC4)nnc3c2c1 | inconclusive: 36% |
| COc1ccccc1C1(CC(=O)N2CCCCC2)CCOC(C(C)C)C1 (stereo unspecified) | inconclusive: 33.5% |
| N#Cc1cc(-c2ccccc2)nc(NN)n1 | inactive: -1.55% |
| S=C(NCc1ccc(Cl)cc1)Nc1ccncc1 | inconclusive: 64.8% |
| Cc1cc(Nc2ccccc2)c2c([N+](=O)[O-])cc(C)c(C)c2n1 | inactive: 3.46% |
| Cc1sc2nc(C)n(/N=C/c3ccccc3)c(=O)c2c1C | inconclusive: 49.6% |
| O=C1C=C(c2cccc(Cl)c2)C[C@@H](c2ccc3c(c2)OCO3)C1 | inconclusive: 49.3% |
| CC(C)(C)Nc1nc(N2CCCC2)nc(N2CCCC2)n1 | inconclusive: 41.3% |
| Cc1ccc(NC(=O)C2COc3ccccc3O2)cc1C (stereo unspecified) | inconclusive: 30.4% |

Ordered by length of the SMILES (falling): some entries from above

| SMILES | activation |
| --- | --- |
| O=C(/C=C/C=C/c1ccccc1)c1ccco1 | inconclusive: 55.9% |
| N#Cc1cc(-c2ccccc2)nc(NN)n1 | inactive: -1.55% |
| CCCc1nc(SC)[nH]c(=O)c1C | inactive: -1.2% |

The list continues:

| SMILES | activation |
| --- | --- |
| CCN(CC(=O)Nc1ccc(OC)cc1)CC(=O)Nc1sc2c(c1C(=O)OC)CCCC2 | inactive: 12.4% |
| CC1CCN(C(=S)NCCc2ccccc2)CC1 | inconclusive: 65.6% |
| Cc1ccc(OCc2cc(C(=O)NCCc3cccnc3)no2)cc1C | inconclusive: 32.8% |
| CN1C(=O)/C(=C/c2ccccc2F)Sc2ccc(C(=O)NCC3CCCO3)cc21 (stereo unspecified) | inactive: 28.3% |
| CCCOc1ccc(/C=C2\SC(=S)N(CC3CCCO3)C2=O)cc1 (stereo unspecified) | inactive: 3.04% |
| CC(=O)Nc1ccc(NC(=O)CCN2C(=O)c3ccccc3C2=O)cc1 | inactive: 4.91% |
| CCOc1ccc(C(=O)NC(C(=O)N2CCC2)C(C)C)cc1 (stereo unspecified) | inactive: -1.47% |
| C=CCN1C(=O)C(CC(=O)Nc2ccccc2)S/C1=N/c1nccs1 (stereo unspecified) | inconclusive: 35.5% |
| Cc1ccc(Cl)cc1N1CCN(C(=O)c2cn(C)c(=O)c3c2c2ccccc2n3C)CC1 | inactive: 0.0931% |
| O=C(NCCSc1ccc(Cl)cc1)c1ccco1 | inconclusive: 67.6% |
| CC1Cc2ccccc2N1CC(=O)NC(c1ccccc1)c1ccccc1 (stereo unspecified) | inconclusive: 31% |
| C=CCOC(=O)C1=C[C@H](c2ccc(C(F)(F)F)cc2)[C@@H](CCCO)[C@H](OCC)O1 | inconclusive: 38.5% |
| O=C(C1=C[C@@H](C2CC2)C[C@@H](OCc2ccc(CO)cc2)O1)N1CCN(Cc2ccc3c(c2)OCO3)CC1 | inconclusive: 64.7% |
| O=C(COC(=O)Cc1ccsc1)NCc1ccc(Cl)cc1 | inconclusive: 36.7% |
| Cc1ccc(-n2c(-c3ccccc3)n[nH]c2=S)cc1 | inactive: -1.98% |
| CCOP(=O)(OCC)c1nc(-c2ccc(Br)cc2)oc1N1CCCCC1 | inconclusive: 35.9% |
| CCc1nnc(NC(=O)CSc2nc3ccccc3s2)s1 | inactive: -1.16% |
| CCN(CC)c1nc2ccccc2nc1C(C#N)C(=O)NCCCOC (stereo unspecified) | inconclusive: 50.5% |
| Nn1c(SCc2ccccc2)nc2c(cnn2-c2ccccc2)c1=O | inconclusive: 37.6% |
| CCc1ccc(NC(=O)N(Cc2c[nH]c3ccccc23)C2CCCCCC2)cc1 | inconclusive: 49.5% |
| Cc1cccc(OCCCC(=O)NC(C)c2ccccc2)c1 (stereo unspecified) | inconclusive: 57.9% |
| O=C(NCc1ccc(Cl)cc1)C1=Cc2cc(Cl)ccc2OC1 | inconclusive: 75.7% |
